Source: the supplement of paper PMC12819154, “High-throughput peptide-centric local stability assay extends protein–ligand identification to membrane proteins, tissues and bacteria” (Nature Structural & Molecular Biology, 2025)
The list shows a part of the results. Most values lie at the level of the controls, where differences are scatter.

By UniProt entry, the sequences of proteins in these tests, tags left out. Where a name states a change or a piece, a line headed by the entry shows the natural chain unless it says otherwise.
UniProt Q8BSN5: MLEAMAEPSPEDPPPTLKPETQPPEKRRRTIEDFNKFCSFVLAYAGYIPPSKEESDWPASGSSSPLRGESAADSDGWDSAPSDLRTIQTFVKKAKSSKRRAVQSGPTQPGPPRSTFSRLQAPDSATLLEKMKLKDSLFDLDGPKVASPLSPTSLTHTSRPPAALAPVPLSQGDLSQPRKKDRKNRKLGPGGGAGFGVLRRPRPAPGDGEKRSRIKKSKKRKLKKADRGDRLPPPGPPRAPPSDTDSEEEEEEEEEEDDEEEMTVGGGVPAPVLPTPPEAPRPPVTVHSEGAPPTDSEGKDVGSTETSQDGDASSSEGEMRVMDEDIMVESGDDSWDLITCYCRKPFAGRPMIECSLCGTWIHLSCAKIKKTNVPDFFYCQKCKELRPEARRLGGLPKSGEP
UniProt Q8BK30: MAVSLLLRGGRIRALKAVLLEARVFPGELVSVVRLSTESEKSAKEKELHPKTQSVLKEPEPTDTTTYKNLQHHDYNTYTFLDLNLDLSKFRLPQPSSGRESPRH
UniProt Q8BKF1: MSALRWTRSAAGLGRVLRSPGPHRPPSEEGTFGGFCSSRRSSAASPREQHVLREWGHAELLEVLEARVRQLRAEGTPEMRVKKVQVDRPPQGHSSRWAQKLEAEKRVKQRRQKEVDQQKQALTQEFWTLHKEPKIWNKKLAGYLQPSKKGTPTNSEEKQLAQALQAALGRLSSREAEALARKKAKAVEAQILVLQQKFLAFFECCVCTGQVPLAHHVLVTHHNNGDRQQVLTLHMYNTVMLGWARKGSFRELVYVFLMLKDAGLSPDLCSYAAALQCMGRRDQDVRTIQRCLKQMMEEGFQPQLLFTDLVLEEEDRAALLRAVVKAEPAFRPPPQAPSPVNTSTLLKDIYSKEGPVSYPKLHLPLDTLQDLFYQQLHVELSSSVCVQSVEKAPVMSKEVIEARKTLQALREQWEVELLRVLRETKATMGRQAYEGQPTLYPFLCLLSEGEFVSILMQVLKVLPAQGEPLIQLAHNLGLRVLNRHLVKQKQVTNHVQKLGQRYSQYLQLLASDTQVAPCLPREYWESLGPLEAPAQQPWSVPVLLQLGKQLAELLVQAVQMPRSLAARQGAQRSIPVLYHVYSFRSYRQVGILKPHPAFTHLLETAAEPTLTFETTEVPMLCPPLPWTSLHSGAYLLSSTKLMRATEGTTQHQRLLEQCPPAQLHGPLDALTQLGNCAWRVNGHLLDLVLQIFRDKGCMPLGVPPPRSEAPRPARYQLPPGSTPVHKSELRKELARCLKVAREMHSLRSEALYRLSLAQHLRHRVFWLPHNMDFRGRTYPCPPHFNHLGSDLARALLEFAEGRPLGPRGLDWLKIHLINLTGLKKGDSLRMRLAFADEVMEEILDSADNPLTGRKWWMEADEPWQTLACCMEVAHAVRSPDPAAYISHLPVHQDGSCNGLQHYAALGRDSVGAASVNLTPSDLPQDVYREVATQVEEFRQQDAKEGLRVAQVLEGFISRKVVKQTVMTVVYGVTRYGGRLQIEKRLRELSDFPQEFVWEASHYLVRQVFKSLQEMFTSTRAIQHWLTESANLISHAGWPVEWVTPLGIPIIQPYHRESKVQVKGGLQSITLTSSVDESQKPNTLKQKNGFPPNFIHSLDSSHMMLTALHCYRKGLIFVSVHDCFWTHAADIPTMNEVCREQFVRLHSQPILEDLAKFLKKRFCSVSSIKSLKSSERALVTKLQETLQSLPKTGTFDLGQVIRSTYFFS
UniProt Q8BIR2: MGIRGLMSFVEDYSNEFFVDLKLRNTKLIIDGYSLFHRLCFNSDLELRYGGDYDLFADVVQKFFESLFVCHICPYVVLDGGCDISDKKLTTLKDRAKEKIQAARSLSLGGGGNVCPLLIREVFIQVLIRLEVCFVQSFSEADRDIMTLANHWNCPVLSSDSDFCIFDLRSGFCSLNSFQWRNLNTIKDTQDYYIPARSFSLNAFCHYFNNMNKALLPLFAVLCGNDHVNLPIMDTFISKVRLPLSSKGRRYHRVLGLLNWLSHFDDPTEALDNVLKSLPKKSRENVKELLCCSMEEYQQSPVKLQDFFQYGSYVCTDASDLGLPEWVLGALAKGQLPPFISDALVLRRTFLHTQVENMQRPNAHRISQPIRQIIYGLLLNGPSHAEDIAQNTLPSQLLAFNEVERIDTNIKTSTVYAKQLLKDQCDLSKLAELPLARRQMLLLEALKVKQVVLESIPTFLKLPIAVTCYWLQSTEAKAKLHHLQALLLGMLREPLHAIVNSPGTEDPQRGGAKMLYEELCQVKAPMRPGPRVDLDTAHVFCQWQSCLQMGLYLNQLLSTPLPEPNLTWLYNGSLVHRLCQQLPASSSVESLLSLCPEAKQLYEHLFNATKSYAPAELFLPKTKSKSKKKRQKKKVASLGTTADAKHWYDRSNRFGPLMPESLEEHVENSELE
UniProt Q8BUL6: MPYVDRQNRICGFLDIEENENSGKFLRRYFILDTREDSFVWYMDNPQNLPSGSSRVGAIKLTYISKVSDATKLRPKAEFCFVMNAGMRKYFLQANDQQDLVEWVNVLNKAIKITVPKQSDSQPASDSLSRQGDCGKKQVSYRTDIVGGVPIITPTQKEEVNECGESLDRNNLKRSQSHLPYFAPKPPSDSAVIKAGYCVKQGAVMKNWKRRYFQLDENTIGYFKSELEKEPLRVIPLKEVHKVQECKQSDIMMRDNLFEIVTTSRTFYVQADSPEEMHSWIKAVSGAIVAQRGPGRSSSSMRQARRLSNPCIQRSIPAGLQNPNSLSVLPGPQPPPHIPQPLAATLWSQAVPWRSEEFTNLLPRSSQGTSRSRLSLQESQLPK
UniProt Q8BJD1: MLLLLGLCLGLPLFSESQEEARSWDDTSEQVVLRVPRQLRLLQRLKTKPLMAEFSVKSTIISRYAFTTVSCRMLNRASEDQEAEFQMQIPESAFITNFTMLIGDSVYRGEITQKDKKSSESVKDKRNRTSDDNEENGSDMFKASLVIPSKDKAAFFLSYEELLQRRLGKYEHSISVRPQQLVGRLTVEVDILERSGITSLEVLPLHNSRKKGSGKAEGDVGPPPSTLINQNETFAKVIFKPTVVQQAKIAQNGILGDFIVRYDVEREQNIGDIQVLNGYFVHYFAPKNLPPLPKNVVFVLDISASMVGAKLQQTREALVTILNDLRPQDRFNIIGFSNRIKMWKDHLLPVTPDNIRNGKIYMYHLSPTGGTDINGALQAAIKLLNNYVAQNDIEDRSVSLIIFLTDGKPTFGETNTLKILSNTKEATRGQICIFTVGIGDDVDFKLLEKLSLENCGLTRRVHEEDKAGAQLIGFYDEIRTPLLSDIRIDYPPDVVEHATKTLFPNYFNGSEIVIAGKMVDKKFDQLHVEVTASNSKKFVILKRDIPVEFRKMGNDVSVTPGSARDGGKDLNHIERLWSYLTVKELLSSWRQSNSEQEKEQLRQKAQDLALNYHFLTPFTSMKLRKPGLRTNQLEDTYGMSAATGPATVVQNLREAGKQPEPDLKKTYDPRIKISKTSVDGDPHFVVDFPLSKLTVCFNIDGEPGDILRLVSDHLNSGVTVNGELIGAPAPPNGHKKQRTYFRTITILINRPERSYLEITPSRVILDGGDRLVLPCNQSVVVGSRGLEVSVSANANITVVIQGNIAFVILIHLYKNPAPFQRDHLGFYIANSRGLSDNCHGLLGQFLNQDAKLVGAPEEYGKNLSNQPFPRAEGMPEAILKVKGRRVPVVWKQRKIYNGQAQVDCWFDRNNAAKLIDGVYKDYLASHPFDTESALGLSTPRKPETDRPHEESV
UniProt Q8BKX7: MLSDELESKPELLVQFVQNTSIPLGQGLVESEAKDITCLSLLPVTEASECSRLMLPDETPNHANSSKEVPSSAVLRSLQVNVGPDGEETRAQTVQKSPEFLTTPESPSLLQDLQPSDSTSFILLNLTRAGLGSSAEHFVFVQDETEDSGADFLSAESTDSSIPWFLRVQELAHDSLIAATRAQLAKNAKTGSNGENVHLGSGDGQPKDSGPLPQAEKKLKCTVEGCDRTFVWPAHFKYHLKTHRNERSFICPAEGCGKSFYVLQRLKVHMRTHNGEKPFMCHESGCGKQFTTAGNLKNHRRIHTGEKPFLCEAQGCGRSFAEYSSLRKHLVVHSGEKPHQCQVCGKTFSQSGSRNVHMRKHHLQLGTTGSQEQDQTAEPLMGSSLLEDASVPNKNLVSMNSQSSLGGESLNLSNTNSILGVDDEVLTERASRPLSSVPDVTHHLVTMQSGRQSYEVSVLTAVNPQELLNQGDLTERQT
UniProt Q8BL65: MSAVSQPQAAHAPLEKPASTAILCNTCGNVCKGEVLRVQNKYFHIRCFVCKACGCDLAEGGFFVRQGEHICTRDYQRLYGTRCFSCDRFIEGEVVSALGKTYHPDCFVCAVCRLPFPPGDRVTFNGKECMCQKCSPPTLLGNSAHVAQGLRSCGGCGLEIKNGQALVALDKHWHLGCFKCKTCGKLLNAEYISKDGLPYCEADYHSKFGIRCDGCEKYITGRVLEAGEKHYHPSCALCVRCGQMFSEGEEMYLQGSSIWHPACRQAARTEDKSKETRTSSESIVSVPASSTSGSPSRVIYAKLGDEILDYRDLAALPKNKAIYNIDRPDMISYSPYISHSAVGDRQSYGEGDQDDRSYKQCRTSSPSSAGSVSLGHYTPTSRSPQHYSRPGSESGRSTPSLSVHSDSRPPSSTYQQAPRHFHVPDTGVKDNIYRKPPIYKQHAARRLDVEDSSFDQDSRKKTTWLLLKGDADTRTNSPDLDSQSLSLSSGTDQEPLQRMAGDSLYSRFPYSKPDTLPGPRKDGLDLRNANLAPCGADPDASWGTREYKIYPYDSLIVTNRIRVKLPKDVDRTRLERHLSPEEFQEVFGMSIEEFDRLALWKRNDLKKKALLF
UniProt Q8BIJ6: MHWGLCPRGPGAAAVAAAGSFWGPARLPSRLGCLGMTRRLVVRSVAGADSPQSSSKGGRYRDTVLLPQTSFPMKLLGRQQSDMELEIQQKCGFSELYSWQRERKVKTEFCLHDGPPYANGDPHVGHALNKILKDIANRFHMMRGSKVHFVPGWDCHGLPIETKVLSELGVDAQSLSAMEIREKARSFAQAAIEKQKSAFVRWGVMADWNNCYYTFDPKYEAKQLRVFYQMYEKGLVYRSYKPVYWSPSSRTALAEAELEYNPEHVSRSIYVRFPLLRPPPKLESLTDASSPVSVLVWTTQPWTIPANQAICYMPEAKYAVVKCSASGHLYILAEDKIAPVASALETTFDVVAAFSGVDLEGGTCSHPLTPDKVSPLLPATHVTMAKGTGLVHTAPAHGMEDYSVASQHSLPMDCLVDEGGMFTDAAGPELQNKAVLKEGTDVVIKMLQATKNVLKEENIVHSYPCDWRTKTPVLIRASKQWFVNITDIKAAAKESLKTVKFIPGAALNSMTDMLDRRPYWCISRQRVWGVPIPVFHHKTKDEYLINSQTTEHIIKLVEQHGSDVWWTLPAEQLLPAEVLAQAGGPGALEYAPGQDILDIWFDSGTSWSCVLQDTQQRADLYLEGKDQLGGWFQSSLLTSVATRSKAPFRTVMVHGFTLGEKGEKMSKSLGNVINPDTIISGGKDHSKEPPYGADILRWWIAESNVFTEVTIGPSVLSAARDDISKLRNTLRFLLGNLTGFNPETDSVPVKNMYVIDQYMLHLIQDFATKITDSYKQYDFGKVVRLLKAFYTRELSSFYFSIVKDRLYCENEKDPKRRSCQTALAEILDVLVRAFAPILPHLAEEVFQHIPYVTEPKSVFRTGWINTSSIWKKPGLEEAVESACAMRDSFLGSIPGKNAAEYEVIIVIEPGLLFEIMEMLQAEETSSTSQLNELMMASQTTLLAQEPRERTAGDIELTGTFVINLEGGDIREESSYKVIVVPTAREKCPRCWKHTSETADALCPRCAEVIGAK
UniProt Q8BU33: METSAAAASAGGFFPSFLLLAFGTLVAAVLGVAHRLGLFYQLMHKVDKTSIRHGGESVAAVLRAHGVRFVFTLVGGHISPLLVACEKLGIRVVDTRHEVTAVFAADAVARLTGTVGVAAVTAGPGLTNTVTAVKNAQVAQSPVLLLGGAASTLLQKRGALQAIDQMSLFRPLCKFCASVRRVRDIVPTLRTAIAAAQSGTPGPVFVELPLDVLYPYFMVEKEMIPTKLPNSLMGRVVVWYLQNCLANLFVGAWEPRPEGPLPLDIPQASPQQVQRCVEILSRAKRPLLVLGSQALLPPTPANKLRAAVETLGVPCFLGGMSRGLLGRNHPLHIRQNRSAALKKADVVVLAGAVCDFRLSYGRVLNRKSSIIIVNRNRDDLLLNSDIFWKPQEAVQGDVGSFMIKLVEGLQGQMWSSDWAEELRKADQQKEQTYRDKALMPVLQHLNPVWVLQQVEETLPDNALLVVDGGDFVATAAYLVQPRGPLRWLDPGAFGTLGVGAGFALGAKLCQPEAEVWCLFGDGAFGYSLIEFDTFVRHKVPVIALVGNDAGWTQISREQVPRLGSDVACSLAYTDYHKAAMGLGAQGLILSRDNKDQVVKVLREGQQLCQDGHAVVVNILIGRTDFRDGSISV

Compound: CN[C@@H]1C[C@H]2O[C@@](C)([C@@H]1OC)n1c3ccccc3c3c4c(c5c6ccccc6n2c5c31)C(=O)NC4 [staurosporine]
Test: log2 fold change of tryptic peptide abundance, ligand vs vehicle (limited proteolysis) (log2 ratio); higher = more trypsin-susceptible (destabilized)
Conditions: ligand concentration: 20 uM; sample: mouse liver crude lysate; replicate design: treated separately

| Target | log2 fold change |
| --- | --- |
| UniProt Q8BSN5 (peptide sequence: LKDSLFDLDGPK, peptide start residue: 133) | 0.145 |
| UniProt Q8BLK9 (peptide sequence: AAPQLHTGPQPPGSLSSRPPWSLR, peptide start residue: 307) | -0.261 |
| UniProt Q8BK30 (peptide sequence: EPEPTDTTTYK, peptide start residue: 58) | 0.216 |
| UniProt Q8BKF1 (peptide sequence: ALLEFAEGRPLGPR, peptide start residue: 794) | 0.671 |
| UniProt Q8BRB7 (peptide sequence: ICHAVSTSHGLDKK, peptide start residue: 32) | 0.302 |
| UniProt Q8BIR2 (peptide sequence: VASLGTTADAK, peptide start residue: 635) | -0.245 |
| UniProt Q8BUL6 (peptide sequence: LSLQESQLPK, peptide start residue: 374) | -0.298 |
| UniProt Q8BRG8 (peptide sequence: KFQYQLACR, peptide start residue: 288) | 0.277 |
| UniProt Q8BJD1 (peptide sequence: TLFPNYFNGSEIVIAGK, peptide start residue: 501) | -0.0658 |
| UniProt Q8BKX7 (peptide sequence: VQELAHDSLIAATR, peptide start residue: 168) | 0.421 |
| UniProt Q8BL65 (peptide sequence: LGDEILDYR, peptide start residue: 303) | 0.452 |
| UniProt Q8BIJ6 (peptide sequence: SFAQAAIEK, peptide start residue: 186) | -0.35 |
| UniProt Q8BU33 (peptide sequence: LGSDVACSLAYTDYHK, peptide start residue: 562) | -0.408 |
| UniProt Q8BJL0 (peptide sequence: KWSFLLEEHNK, peptide start residue: 330) | 0.261 |

A portion from the list above, for reference:

| Target | log2 fold change |
| --- | --- |
| UniProt Q8BKX7 (peptide sequence: VQELAHDSLIAATR, peptide start residue: 168) | 0.421 |
| UniProt Q8BL65 (peptide sequence: LGDEILDYR, peptide start residue: 303) | 0.452 |
